PubChem BioAssay AID1259425, University of Nebraska Medical Center – 2018
The whole screen tested about 14,000 reagents; below is an unselected part. Not stated in the record: the time to read-out.

- Purpose: 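Seek colon cancer weak points whose silencing resembles KSR1 loss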 (primary screen)
- Cell system: HCT116 human colon cancer cells
- Reagents: siRNA pool against human genes, 50 nM siRNA
- Detection: 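After 50 nM siRNA pool, branched-DNA assay measures six marker transcripts per well, minus blank, normalised to the geometric mean of two housekeeping transcripts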
- Direction: BNIP3L mRNA: higher = more BNIP3L transcript after knockdown; NDRG1 mRNA: higher = more NDRG1 transcript after knockdown; BNIP3 mRNA: higher = more BNIP3 transcript after knockdown; ALDOC mRNA: higher = more ALDOC transcript after knockdown; ACSL5 mRNA: higher = more ACSL5 transcript after knockdown

no.	gene knocked down	BNIP3L mRNA, set 1	NDRG1 mRNA, set 1	BNIP3 mRNA, set 1	ALDOC mRNA, set 1	ACSL5 mRNA, set 1
1	EEPD1	0.138	0.299	0.315	0.0525	0.287
2	RPS28 (ribosomal protein S28)	0.0748	0.282	0.37	0.0111	0.0766
3	CACNA1S (calcium voltage-gated channel subunit alpha1 S)	0.159	0.112	0.429	0.0151	0.216
4	MYH16 (myosin heavy chain 16)	1.68	1.59	2.05	0.327	0.484
5	KCNK15 (potassium two pore domain channel subfamily K member 15)	0.0625	0.0415	0.346	0.0177	0.125
6	URM1 (ubiquitin related modifier 1)	0.156	0.192	0.276	0.0237	0.389
7	PDE8A (phosphodiesterase 8A)	0.0405	0.282	0.439	0.0344	0.175
8	PGM1 (phosphoglucomutase 1)	0.134	0.372	0.218	0.0487	0.144
9	MED20 (mediator complex subunit 20)	0.227	0.137	0.367	0.0557	0.0785
10	MARK4 (microtubule affinity regulating kinase 4)	0.0811	0.0937	0.267	0.00878	0.14
11	LILRA4 (leukocyte immunoglobulin like receptor A4)	0.0512	0.131	0.226	0.0255	0.0948
12	RAPGEF6 (Rap guanine nucleotide exchange factor 6)	0.292	1.22	0.524	0.0118	0.491
13	NCKAP5L (NCK associated protein 5 like)	0.141	1.19	0.173	0.0786	0.129
14	MEIS2 (Meis homeobox 2)	0.0728	0.0901	0.301	0.0147	0.11
15	PLK3 (polo like kinase 3)	0.102	0.158	0.248	0.00793	0.157
16	CHST2 (carbohydrate sulfotransferase 2)	0.138	0.126	0.262	0.0232	0.108
17	SLCO1B1	0.123	0.144	0.415	0.0335	0.142
18	IGFBP3 (insulin like growth factor binding protein 3)	0.0546	0.275	0.301	0.0112	0.18
19	RPL4 (ribosomal protein L4)	0.329	0.95	0.604	0.0621	0.494
20	PDC (phosducin)	0.116	0.2	0.376	0.037	0.204
21	KCNJ15 (potassium inwardly rectifying channel subfamily J member 15)	0.0625	0.0703	0.271	0.0165	0.0859
22	KIF17 (kinesin family member 17)	0.114	0.138	0.395	0.0152	0.166
23	IL17RB (interleukin 17 receptor B)	0.0797	0.0702	0.237	0.0136	0.123
24	ARMCX3 (armadillo repeat containing X-linked 3)	0.071	0.288	0.355	0.029	0.413
25	WNT3 (Wnt family member 3)	0.118	0.178	0.259	0.0158	0.129
26	SLC23A1	0.0607	0.101	0.269	0.0219	0.147
27	CORIN (corin, serine peptidase)	0.211	0.276	0.31	0.11	0.0893
28	SPIB (Spi-B transcription factor)	0.133	0.162	0.482	0.0342	0.178
29	TRPM8	0.0694	0.221	0.302	0.0127	0.202
30	PMPCB (peptidase, mitochondrial processing subunit beta)	0.0959	0.228	0.316	0.0203	0.164
31	GOLPH3L (golgi phosphoprotein 3 like)	0.109	0.139	0.37	0.0131	0.244
32	HOXA2 (homeobox A2)	0.0753	0.206	0.373	-0.00637	0.228
33	DHRS7B (dehydrogenase/reductase 7B)	0.0911	0.116	0.482	0.00809	0.119
34	RNASE2 (ribonuclease A family member 2)	0.325	0.303	0.542	0.0153	0.333
35	TFAP2C (transcription factor AP-2 gamma)	0.0717	0.118	0.293	-0.0012	0.146
36	NCOA4 (nuclear receptor coactivator 4)	0.0859	0.134	0.307	0.0173	0.273
37	DTX1 (deltex E3 ubiquitin ligase 1)	0.0893	0.154	0.18	0.0223	0.13
38	AKAP19 (A-kinase anchoring protein 19)	0.439	0.398	0.53	0.225	1.15
39	NCKAP1L (NCK associated protein 1 like)	0.068	0.152	0.255	0.0148	0.139
40	TSNAX (translin associated factor X)	0.144	0.133	0.351	0.0306	0.262
41	SUMF2 (sulfatase modifying factor 2)	0.178	0.139	0.438	0.0255	0.169
42	PLP1 (proteolipid protein 1)	0.0696	0.129	0.286	0.0316	0.239
43	NDUFA8 (NADH:ubiquinone oxidoreductase subunit A8)	0.142	0.558	0.433	0.0256	0.23
44	BTAF1 (B-TFIID TATA-box binding protein associated factor 1)	0.122	0.191	0.254	0.0205	0.243
45	FRY (FRY microtubule binding protein)	0.198	0.167	0.341	0.0573	0.158
46	CUL3 (cullin 3)	0.0449	0.143	0.237	0.0301	0.104
47	GABRP (gamma-aminobutyric acid type A receptor subunit pi)	0.0621	0.378	0.268	0.0219	0.198
48	ANOS1 (anosmin 1)	0.0855	0.264	0.367	0.0331	0.317
49	LTAP1 (lipid transport auxiliary protein 1)	0.0991	0.121	0.397	0.0167	0.095
50	POU6F1 (POU class 6 homeobox 1)	0.0669	0.135	0.419	0.0226	0.109
51	ATAD3B (ATPase family AAA domain containing 3B)	0.181	0.376	0.297	0.036	0.314
52	FOXA3 (forkhead box A3)	0.288	0.336	0.408	0.0151	0.149
53	ARL6IP4 (ARF like GTPase 6 interacting protein 4)	0.114	0.0871	0.303	0.028	0.0941
54	NEBL (nebulette)	0.0952	0.166	0.266	0.0185	0.0769
55	SEPTIN5 (septin 5)	0.117	0.668	0.265	0.0155	0.215
56	NCAPH (non-SMC condensin I complex subunit H)	0.068	0.176	0.344	0.0258	0.119
57	EPX (eosinophil peroxidase)	0.095	0.151	0.264	0.0198	0.108
58	CMKLR1 (chemerin chemokine-like receptor 1)	0.149	0.737	0.263	0.0403	0.27
59	PDSS1 (decaprenyl diphosphate synthase subunit 1)	0.067	0.101	0.432	0.0103	0.337
60	NGDN (neuroguidin)	0.159	0.443	0.907	0.0276	0.191
61	DUOX1 (dual oxidase 1)	1.37	4.47	3.17	0.221	0.236
62	SHCBP1 (SHC binding and spindle associated 1)	0.146	0.225	0.272	0.123	0.223
63	RASA3 (RAS p21 protein activator 3)	0.0449	0.307	0.23	0.0289	0.126

Part of the list above, reformatted:
{"gene knocked down": "NCKAP5L (NCK associated protein 5 like)", "BNIP3L mRNA, set 1": 0.141, "NDRG1 mRNA, set 1": 1.19, "BNIP3 mRNA, set 1": 0.173, "ALDOC mRNA, set 1": 0.0786, "ACSL5 mRNA, set 1": 0.129}
{"gene knocked down": "MEIS2 (Meis homeobox 2)", "BNIP3L mRNA, set 1": 0.0728, "NDRG1 mRNA, set 1": 0.0901, "BNIP3 mRNA, set 1": 0.301, "ALDOC mRNA, set 1": 0.0147, "ACSL5 mRNA, set 1": 0.11}
{"gene knocked down": "PLK3 (polo like kinase 3)", "BNIP3L mRNA, set 1": 0.102, "NDRG1 mRNA, set 1": 0.158, "BNIP3 mRNA, set 1": 0.248, "ALDOC mRNA, set 1": 0.00793, "ACSL5 mRNA, set 1": 0.157}
{"gene knocked down": "CHST2 (carbohydrate sulfotransferase 2)", "BNIP3L mRNA, set 1": 0.138, "NDRG1 mRNA, set 1": 0.126, "BNIP3 mRNA, set 1": 0.262, "ALDOC mRNA, set 1": 0.0232, "ACSL5 mRNA, set 1": 0.108}
{"gene knocked down": "SLCO1B1", "BNIP3L mRNA, set 1": 0.123, "NDRG1 mRNA, set 1": 0.144, "BNIP3 mRNA, set 1": 0.415, "ALDOC mRNA, set 1": 0.0335, "ACSL5 mRNA, set 1": 0.142}
